Assay results reported in the supplement of paper PMC10398353.
Structures can show the parent of a compound that is named as a salt. This is one part of the list. This is a noisy data set.

The compounds below were run on Salmonella enterica serovar Typhimurium ST313 D23580 (assay: normalized bacterial growth (OD600 20 h minus 0 h, interquartile-mean normalized) (fraction of plate interquartile mean); higher = more bacterial growth (less inhibition)). Settings: LPM (pH 5.8, low phosphate, low Mg2+), concentration: 10 µM, temperature: 37 °C.
Compound `CNc1ccccc1C(=O)O` has a normalized bacterial growth of 1.21. In the case of `CN1C[C@H](C(=O)N[C@]2(C)O[C@@]3(O)[C@@H]4CCCN4C(=O)[C@H](Cc4ccccc4)N3C2=O)C=C2c3cccc4[nH]cc(c34)C[C@H]21`, the normalized bacterial growth was 0.875. For `[O-][n+]1ccccc1[S-].[O-][n+]1ccccc1[S-].[Zn+2]`, the normalized bacterial growth was 0.118. `O[C@H]1[C@H](O)[C@@H](O)CN2CC[C@H](O)[C@H]12` was tested, and the normalized bacterial growth was 1.09. For `CCC1=C[C@@H]2CN3CCc4c([nH]c5ccccc45)[C@@](C(=O)OC)(C2)[C@@H]13`, the normalized bacterial growth was 0.941. `O=C(O)[C@@H]1[C@H](C(=O)O)[C@H]2CC[C@@H]1O2` [Endothall] gave a normalized bacterial growth of 1.32. `CCC(C)C(=O)O[C@@H]1C[C@@]2(C)[C@H](c3ccoc3)OC(=O)CC23OC2(C)O[C@]14[C@]1(C)[C@@H](CC(=O)OC)C5(C)CC1(O)[C@](O)(C5OC(=O)C1(C)OC1C)[C@@H](OC(C)=O)[C@]34O2` (stereo partly drawn) showed a normalized bacterial growth of 0.697. `C[C@H]1CC[C@@H]2[C@@H](C)[C@H]3[C@H](C[C@H]4[C@@H]5CC[C@H]6C[C@@H](O)CC[C@]6(C)[C@H]5CC[C@]34C)N2C1` gave a normalized bacterial growth of 1.26. Compound `ClC(Cl)=C(c1ccc(Cl)cc1)c1ccc(Cl)cc1` has a normalized bacterial growth of 1.08. In the case of `CCOC(=O)C1C(C=C(C)C)C1(C)C` (stereo not drawn), the normalized bacterial growth was 1.01. With `COC1=C[C@@H]2[C@@H]3Cc4ccc(OC)c(O)c4[C@]2(CCN3C)CC1=O` the normalized bacterial growth was 1.02. For `O=C1C=CC(=O)c2ccccc21`, the normalized bacterial growth was 0.838. `CC(=O)[C@H]1CC[C@H]2[C@@H]3CC[C@H]4C[C@](C)(O)CC[C@]4(C)[C@H]3CC[C@]12C` [Ganaxolone] was tested, and the normalized bacterial growth was 0.977. Compound `CN(C)CCc1ccc(O)cc1` has a normalized bacterial growth of 1.07. For `COc1cc(CC(C)N)c(OC)cc1I` (stereo not drawn) [()-DOI hydrochloride], the normalized bacterial growth was 1.04. Work on `CO[C@@H]1[C@H](O)C[C@@H](O[C@@H]2C[C@H](Oc3cc4cc5c(c(O)c4c(O)c3C)C(=O)[C@@H](O[C@H]3C[C@@H](O[C@H]4C[C@@H](O[C@H]6C[C@](C)(O)[C@@H](OC(C)=O)[C@H](C)O6)[C@H](O)[C@@H](C)O4)[C@H](O)[C@@H](C)O3)[C@H]([C@H](OC)C(=O)[C@@H](O)[C@@H](C)O)C5)O[C@H](C)[C@@H]2OC(C)=O)O[C@@H]1C` yielded a normalized bacterial growth of 0.886. `C[C@@H]1O[C@@H](O[C@H]2CC[C@]3(C=O)[C@H]4CC[C@]5(C)[C@@H](C6=CC(=O)OC6)CC[C@]5(O)[C@@H]4CC[C@]3(O)C2)[C@H](O)[C@H](O)[C@H]1O` showed a normalized bacterial growth of 1.02. Compound `CN1[C@@H]2C[C@@H](OC(=O)[C@H](CO)c3ccccc3)C[C@H]1[C@@H]1O[C@@H]12` [(-)-Scopolamine hydrobromide] has a normalized bacterial growth of 0.846. Compound `CN1[C@@H]2C[C@@H](OC(=O)[C@H](CO)c3ccccc3)C[C@H]1[C@@H]1O[C@@H]12` has a normalized bacterial growth of 1.16. With `CN1[C@@H]2C[C@@H](OC(=O)[C@H](CO)c3ccccc3)C[C@H]1[C@@H]1O[C@@H]12` [Scopolamine hydrochloride] the normalized bacterial growth was 0.542. Compound `CC1(C)C2CC(=O)[C@]3(C)C(CC[C@@]4(C)[C@H](c5ccoc5)OC(=O)C5OC543)[C@@]2(C)[C@@H](O)C[C@H]1O` (stereo partly drawn) has a normalized bacterial growth of 0.802. For `c1cc2c(cc1[C@H]1OC[C@H]3[C@@H]1CO[C@H]3c1ccc3c(c1)OCO3)OCO2`, the normalized bacterial growth was 1.2. With `N[C@H](C(=O)O)c1cc(O)no1` [()-Ibotenic acid] the normalized bacterial growth was 1.04. In the case of `C[C@]12CC[C@@H](O)C[C@H]1CC[C@@H]1[C@@H]2CC[C@]2(C)C(=O)CC[C@@H]12` [3-alpha-Hydroxy-5-beta-androstan-17-one], the normalized bacterial growth was 0.777. Work on `CC(N)c1cccc(Cl)c1Cl` (stereo not drawn) ["()-2,3-Dichloro-alpha-methylbenzylamine hydrochloride"] yielded a normalized bacterial growth of 0.657. Work on `COc1cc2c(cc1OC)[C@@H]1C(=O)c3ccc(OC)c(CC=C(C)C)c3O[C@@H]1CO2` yielded a normalized bacterial growth of 0.664. For `C#CCN(C)[C@H](C)Cc1ccccc1`, the normalized bacterial growth was 1.15. With `C#CCN(C)[C@H](C)Cc1ccccc1` [Selegiline hydrochloride] the normalized bacterial growth was 0.6. `CN(C)C(=O)Oc1ccc[n+](C)c1` [Pyridostigmine bromide] showed a normalized bacterial growth of 1.15. Work on `C[C@@H]1O[C@@H](O[C@@H]2C=C3CC[C@@H]4[C@H](CC[C@]5(C)[C@@H](c6ccc(=O)oc6)CC[C@]45O)[C@@]3(C)CC2)[C@H](O)[C@H](O)[C@H]1O` [Proscillaridin A] yielded a normalized bacterial growth of 0.974. `C=CCN1CC[C@]23CCCC[C@H]2[C@H]1Cc1ccc(O)cc13` [Levallorphan tartrate] showed a normalized bacterial growth of 1.11. With `COc1ccc(/C=C/c2cc(O)cc(O)c2)cc1` the normalized bacterial growth was 0.908. Work on `CC[C@H]1CN2CC[C@H]1C[C@H]2[C@H](O)c1ccnc2ccc(OC)cc12` [Hydroquinine hydrobromide hydrate] yielded a normalized bacterial growth of 1.15. Compound `CC(=O)[O][Hg][c]1ccccc1` has a normalized bacterial growth of 0.0799. Work on `O=c1[nH]c2ccccc2n1C1CCN(CCCC(c2ccc(F)cc2)c2ccc(F)cc2)CC1` [Pimozide] yielded a normalized bacterial growth of 0.629. `CCCN1CC[C@@H]2c3cc(O)ccc3CC[C@@H]21` (racemic) [cis(+/-)-8-OH-PBZI hydrobromide] showed a normalized bacterial growth of 0.94. With `C/C=C(\C)C(=O)O[C@H]1C[C@@H](OC(C)=O)[C@@]2(C(=O)OC)CO[C@H]3[C@@H](O)[C@@](C)([C@]45O[C@@]4(C)[C@H]4C[C@@H]5O[C@@H]5OC=C[C@@]54O)[C@H]4[C@]1(CO[C@]4(O)C(=O)OC)[C@@H]32` the normalized bacterial growth was 1.08. Work on `Cc1cc2c(C(C)C)c(O)c(O)c(C=O)c2c(O)c1-c1c(C)cc2c(C(C)C)c(O)c(O)c(C=O)c2c1O` yielded a normalized bacterial growth of 1.47. For `CC(=O)Nc1cc([As](=O)(O)O)ccc1O`, the normalized bacterial growth was 0.446. `CC1=C2C[C@H]3[C@@H](CC=C4C[C@@H](O)CC[C@@]43C)[C@@H]2CC[C@]12O[C@@H]1C[C@H](C)CN[C@H]1[C@H]2C` gave a normalized bacterial growth of 1.06. In the case of `COc1cccc2c1cc([N+](=O)[O-])c1c(C(=O)O)cc3c(c12)OCO3`, the normalized bacterial growth was 0.569. `CC(=O)NCCc1c[nH]c2ccccc12` [N-Acetyltryptamine] was tested, and the normalized bacterial growth was 0.484. `COc1cc2occc2c2oc(=O)ccc12` gave a normalized bacterial growth of 1.1. `NCCc1c[nH]c2ccc(C(N)=O)cc12` [5-Carboxamidotryptamine maleate] was tested, and the normalized bacterial growth was 0.958. Compound `COP(=S)(OC)Oc1cc(Cl)c(Cl)cc1Cl` has a normalized bacterial growth of 1.03. Compound `CCCCCCCCC(=O)NCc1ccc(O)c(OC)c1` has a normalized bacterial growth of 0.736. In the case of `NCCC(O)C(=O)NC1CC(N)C(OC2OC(CN)C(O)[C@H](O)[C@@H]2N)[C@H](OC2O[C@H](CO)[C@@H](O)[C@@H]2O)[C@@H]1O` (stereo partly drawn) [Butirosin disulfate salt], the normalized bacterial growth was 1.2. With `CC1(C)[C@@H](O)C[C@H]2[C@](C)(O)[C@@H]3CC[C@@H]4[C@@H](O)[C@@]3(C[C@@H](O)[C@@]21O)C[C@@]4(C)O` the normalized bacterial growth was 1.25. Compound `Nc1ccc([As](=O)(O)O)cc1` has a normalized bacterial growth of 0.93. With `CC(C)c1ccc2c(c1O)CC[C@H]1C3=C(CC[C@]21C)C(=O)OC3` the normalized bacterial growth was 0.994. `COC1=C[C@]23CCCN2CCc2cc4c(cc2[C@@H]3[C@@H]1O)OCO4` gave a normalized bacterial growth of 1.05. With `O=[N+]([O-])c1ccc(O)c([N+](=O)[O-])c1` the normalized bacterial growth was 0.554. In the case of `CC1OC(OC2/C=C/C=C/C=C/C=C/CC/C=C/C=C/[C@H](C)[C@@H](O)[C@@H](C)[C@H](C)OC(=O)CC(O)CC(O)CC(O)CCC(O)C(O)C[C@]3(O)CC(O)C(C(=O)O)C(C2)O3)C(O)C(N)C1O` (stereo partly drawn) [Nystatine], the normalized bacterial growth was 1.5. In the case of `NCCCNCCSP(=O)(O)O` [Amifostine], the normalized bacterial growth was 0.98. With `CCn1cnc2c(Nc3cccc(Cl)c3)nc(N[C@@H]3CCCC[C@@H]3N)nc21` the normalized bacterial growth was 0.809. `Clc1ccc(N2CCN(Cc3c[nH]c4ncccc34)CC2)cc1` ["L-745,870 hydrochloride"] was tested, and the normalized bacterial growth was 1.05. With `N#CC(C#N)=Cc1ccc([N+](=O)[O-])c(O)c1` [Tyrphostin AG 126] the normalized bacterial growth was 1.19. For `O=S1(=O)N(CCN2CC=C(c3c[nH]c4cc(F)ccc34)CC2)c2cccc3c2N1CCC3`, the normalized bacterial growth was 0.792. In the case of `CN1CCC2=C[C@H](O)[C@H]3OC(=O)c4cc5c(cc4[C@H]3[C@@H]21)OCO5` [Hippeastrine hydrobromide], the normalized bacterial growth was 0.693. `c1ccc2c(c1)[nH]c1cnccc12` showed a normalized bacterial growth of 1.01. `CC(=O)N[C@H]1[C@@H](O[C@@H]2O[C@H](C[C@@H](O)[C@@H]3O[C@H](n4ccc(=O)[nH]c4=O)[C@@H](O)[C@H]3O)[C@H](O)[C@H](O)[C@H]2NC(=O)/C=C/CCCCCCCCCCC(C)C)O[C@H](CO)[C@@H](O)[C@@H]1O` was tested, and the normalized bacterial growth was 1.71. In the case of `O=C(NC(=O)c1ccccc1Cl)Nc1ccc(OC(F)(F)F)cc1`, the normalized bacterial growth was 0.966. `NCC(CP(=O)(O)O)c1ccc(Cl)cc1` (stereo not drawn) [Phaclofen] gave a normalized bacterial growth of 0.868. `CN1[C@@H]2CC[C@H]1C[C@@H](OC(c1ccccc1)c1ccccc1N)C2` (stereo partly drawn) [Aminobenztropine] gave a normalized bacterial growth of 1.06. `CN1Cc2c(ccc3c2OCO3)C2C(O)Cc3cc4c(cc3C21)OCO4` (stereo not drawn) was tested, and the normalized bacterial growth was 1.17. In the case of `c1ccc(C2CC2)c(OCC2=NCCN2)c1` [Cirazoline hydrochloride], the normalized bacterial growth was 1.16. With `C[C@]12CCC(=O)C(O)=C1CC[C@@H]1[C@@H]2CC[C@]2(C)C(=O)CC[C@@H]12` the normalized bacterial growth was 0.913. `CNC(C)(C)Cc1ccccc1` was tested, and the normalized bacterial growth was 1.07. Compound `CNC(C)(C)Cc1ccccc1` [Mephentermine hemisulfate] has a normalized bacterial growth of 0.946. `CNC(Cc1c[nH]c2ccccc12)C(=O)O` (stereo not drawn) was tested, and the normalized bacterial growth was 0.998. Work on `C=CCN1CC[C@]23c4c5ccc(O)c4O[C@H]2/C(=N/N=C2\CC[C@@]4(O)[C@H]6Cc7ccc(O)c8c7[C@@]4(CCN6CC=C)[C@H]2O8)CC[C@@]3(O)[C@H]1C5` [Naloxonazine dihydrochloride] yielded a normalized bacterial growth of 0.857. `CCCC[C@@H](C)[C@@H](OC(=O)C[C@@H](CC(=O)O)C(=O)O)[C@H](C[C@@H](C)CCCCCC[C@@H](O)C[C@H](O)[C@H](C)N)OC(=O)C[C@@H](CC(=O)O)C(=O)O` gave a normalized bacterial growth of 1.29. With `CN1CCc2cc3c(c4c2C1Cc1ccccc1-4)OCO3` (stereo not drawn) the normalized bacterial growth was 0.724.
